In assay [1] the target is T1, RRM domain of DAZ1 (1-496 amino acids)-FLAG, in HEK 293T cells (human) (UniProt Q9NQZ3).
T1 sequence: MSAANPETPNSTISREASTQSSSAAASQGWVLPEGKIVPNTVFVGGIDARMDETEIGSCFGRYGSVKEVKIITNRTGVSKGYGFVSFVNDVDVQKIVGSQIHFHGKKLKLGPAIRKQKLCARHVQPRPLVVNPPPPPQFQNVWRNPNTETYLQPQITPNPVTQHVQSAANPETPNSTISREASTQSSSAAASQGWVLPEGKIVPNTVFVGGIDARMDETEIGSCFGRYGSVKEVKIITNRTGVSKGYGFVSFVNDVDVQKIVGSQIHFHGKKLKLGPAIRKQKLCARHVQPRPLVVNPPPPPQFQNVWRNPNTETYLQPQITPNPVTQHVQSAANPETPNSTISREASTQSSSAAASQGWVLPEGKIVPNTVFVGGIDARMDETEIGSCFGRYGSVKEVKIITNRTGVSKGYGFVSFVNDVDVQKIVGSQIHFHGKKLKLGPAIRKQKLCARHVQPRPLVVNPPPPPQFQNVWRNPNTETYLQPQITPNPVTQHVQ
Kind of assay: co-IP; agarose beads conjugated with FLAG, lysates of HEK 293T cells transfected with DAZ1-FLAG or its truncations; with or without RNase; blots for PABPC1 and CCT3.

Amino acid sequences for entries named in this document (tags omitted).
UniProt P11940: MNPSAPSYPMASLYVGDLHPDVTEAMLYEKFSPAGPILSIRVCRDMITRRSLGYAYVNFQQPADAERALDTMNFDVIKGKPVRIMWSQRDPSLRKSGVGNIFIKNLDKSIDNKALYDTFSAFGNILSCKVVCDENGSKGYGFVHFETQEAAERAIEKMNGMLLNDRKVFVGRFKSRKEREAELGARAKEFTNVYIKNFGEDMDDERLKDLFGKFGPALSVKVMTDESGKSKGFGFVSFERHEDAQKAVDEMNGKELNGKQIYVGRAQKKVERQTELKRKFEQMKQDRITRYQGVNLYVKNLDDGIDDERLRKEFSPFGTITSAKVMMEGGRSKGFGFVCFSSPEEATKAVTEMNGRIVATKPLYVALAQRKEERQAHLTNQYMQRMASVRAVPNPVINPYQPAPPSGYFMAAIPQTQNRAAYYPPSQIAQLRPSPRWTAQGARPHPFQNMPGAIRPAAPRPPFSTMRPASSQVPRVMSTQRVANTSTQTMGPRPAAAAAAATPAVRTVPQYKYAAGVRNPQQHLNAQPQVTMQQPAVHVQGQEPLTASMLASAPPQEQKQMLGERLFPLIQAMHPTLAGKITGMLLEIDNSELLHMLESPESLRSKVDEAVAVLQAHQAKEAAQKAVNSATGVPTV

Assay [2] has as its target T2, DAZ1-FLAG (1-744 amino acids), in HEK 293T cells (human) (UniProt Q9NQZ3).
T2 sequence: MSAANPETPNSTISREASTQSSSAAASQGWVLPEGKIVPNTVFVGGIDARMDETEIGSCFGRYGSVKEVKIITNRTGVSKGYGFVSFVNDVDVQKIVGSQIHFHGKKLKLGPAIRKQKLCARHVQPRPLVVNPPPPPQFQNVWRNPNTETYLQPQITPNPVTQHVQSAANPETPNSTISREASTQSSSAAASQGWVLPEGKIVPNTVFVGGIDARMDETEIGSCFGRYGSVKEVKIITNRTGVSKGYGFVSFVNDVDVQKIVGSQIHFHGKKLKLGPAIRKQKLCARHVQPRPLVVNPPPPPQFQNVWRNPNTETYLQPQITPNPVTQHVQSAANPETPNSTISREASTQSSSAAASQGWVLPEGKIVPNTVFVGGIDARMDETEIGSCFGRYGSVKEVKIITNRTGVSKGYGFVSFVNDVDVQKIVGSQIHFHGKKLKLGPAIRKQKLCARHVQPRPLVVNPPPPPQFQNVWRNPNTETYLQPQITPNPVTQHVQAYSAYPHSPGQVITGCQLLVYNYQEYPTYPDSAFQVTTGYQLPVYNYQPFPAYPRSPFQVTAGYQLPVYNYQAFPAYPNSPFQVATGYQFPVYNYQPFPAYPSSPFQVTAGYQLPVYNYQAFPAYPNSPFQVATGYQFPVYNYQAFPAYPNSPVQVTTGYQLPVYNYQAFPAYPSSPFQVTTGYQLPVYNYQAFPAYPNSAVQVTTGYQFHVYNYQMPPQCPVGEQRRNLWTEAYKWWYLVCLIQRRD
The description is as above.

Assay [3] deals with T3, DAZ repeat region of DAZ1 (497-744 amino acids)-FLAG, in HEK 293T cells (human) (UniProt Q9NQZ3).
T3 sequence: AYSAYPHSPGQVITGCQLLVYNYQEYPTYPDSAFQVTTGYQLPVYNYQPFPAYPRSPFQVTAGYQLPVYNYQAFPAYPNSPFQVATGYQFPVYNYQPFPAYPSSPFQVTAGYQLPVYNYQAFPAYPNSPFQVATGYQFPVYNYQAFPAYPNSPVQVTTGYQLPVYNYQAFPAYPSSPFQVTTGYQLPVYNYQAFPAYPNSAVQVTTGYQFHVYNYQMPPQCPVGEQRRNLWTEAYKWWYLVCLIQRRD
Described as above.

The target of assay [4] is T4, DAZ1-FLAG-3×HA (deleted in azoospermia 1), stably overexpressed in DAOY cells (human) (UniProt Q9NQZ3).
T4 sequence: T2 sequence
The assay is described as follows: co-IP; anti-DAZ antibodies and Protein A/G magnetic beads, lysate of DAZ-overexpressing DAOY cells (10 mM Tris-HCl pH 7.5, 1 mM EDTA, 150 mM NaCl, 0.1% Triton X-100), 4 °C; with or without RNase A; blots for CCT3 and PABPC1.

Results are given in words; binding and its absence hold for the method and conditions named. Binding seen in cells or lysates may run through a third protein. Some entries that bind do so weakly or less than the wild type. Tags and fused reporters may be left off the sequences shown.

Turning to “PABPC1, in HEK 293T cells (from UniProt P11940 1-636)”, the figures for the binding result in assay [1], in assay [2] and in assay [3] were “no binding”, “binds” and “binds”, respectively.

“PABPC1 (Poly A Binding Protein Cytoplasmic 1), in DAOY cells (from UniProt P11940 1-636)”: the binding entry in assay [4] was “binds”.

For the origin of these results see publication PMC11304246.
